According to article PMC12422955:
No constants are given. Whether binding was seen depends on the method and setting.

Protein sequences, listed by entry. Tags and fused reporters are not part of them. Lines headed by an entry give the natural chain unless they say otherwise; changes in a name come on top. Residues count along the entry.
UniProt Q62609: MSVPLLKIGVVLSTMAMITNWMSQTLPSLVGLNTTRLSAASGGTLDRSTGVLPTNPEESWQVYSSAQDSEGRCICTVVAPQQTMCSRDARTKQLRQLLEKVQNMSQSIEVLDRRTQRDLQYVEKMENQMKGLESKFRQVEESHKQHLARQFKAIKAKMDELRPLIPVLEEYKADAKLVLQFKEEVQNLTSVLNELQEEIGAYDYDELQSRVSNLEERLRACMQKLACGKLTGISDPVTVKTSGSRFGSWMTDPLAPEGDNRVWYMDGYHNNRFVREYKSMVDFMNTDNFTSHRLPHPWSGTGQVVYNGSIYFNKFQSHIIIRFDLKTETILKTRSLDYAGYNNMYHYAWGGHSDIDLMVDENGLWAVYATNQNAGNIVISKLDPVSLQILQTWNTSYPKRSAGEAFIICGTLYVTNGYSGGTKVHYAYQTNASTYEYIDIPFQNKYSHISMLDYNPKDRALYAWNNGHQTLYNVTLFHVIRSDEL
UniProt P19491, residues 22-883: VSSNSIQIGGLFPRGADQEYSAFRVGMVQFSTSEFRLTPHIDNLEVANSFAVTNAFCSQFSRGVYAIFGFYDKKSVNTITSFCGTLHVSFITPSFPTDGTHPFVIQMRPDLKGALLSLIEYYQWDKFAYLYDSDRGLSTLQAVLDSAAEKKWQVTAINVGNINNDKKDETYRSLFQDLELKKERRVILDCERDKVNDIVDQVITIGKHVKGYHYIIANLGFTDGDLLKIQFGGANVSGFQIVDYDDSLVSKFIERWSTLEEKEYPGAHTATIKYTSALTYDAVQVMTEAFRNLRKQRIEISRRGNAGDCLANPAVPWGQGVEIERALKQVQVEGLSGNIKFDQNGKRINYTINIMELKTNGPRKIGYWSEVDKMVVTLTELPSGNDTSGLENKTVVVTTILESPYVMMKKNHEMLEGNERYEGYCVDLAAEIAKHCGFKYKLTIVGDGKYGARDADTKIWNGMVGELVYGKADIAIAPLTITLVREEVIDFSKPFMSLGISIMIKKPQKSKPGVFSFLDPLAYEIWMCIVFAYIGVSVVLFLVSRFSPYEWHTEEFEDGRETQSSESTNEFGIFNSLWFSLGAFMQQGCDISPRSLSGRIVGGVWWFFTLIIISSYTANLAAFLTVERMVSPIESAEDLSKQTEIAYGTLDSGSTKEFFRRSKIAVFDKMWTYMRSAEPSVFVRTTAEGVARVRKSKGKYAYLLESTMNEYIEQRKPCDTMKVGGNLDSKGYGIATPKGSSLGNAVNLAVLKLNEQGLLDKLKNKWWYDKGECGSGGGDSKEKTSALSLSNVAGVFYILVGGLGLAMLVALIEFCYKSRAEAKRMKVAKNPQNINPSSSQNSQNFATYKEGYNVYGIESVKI
UniProt P19492, residues 23-888: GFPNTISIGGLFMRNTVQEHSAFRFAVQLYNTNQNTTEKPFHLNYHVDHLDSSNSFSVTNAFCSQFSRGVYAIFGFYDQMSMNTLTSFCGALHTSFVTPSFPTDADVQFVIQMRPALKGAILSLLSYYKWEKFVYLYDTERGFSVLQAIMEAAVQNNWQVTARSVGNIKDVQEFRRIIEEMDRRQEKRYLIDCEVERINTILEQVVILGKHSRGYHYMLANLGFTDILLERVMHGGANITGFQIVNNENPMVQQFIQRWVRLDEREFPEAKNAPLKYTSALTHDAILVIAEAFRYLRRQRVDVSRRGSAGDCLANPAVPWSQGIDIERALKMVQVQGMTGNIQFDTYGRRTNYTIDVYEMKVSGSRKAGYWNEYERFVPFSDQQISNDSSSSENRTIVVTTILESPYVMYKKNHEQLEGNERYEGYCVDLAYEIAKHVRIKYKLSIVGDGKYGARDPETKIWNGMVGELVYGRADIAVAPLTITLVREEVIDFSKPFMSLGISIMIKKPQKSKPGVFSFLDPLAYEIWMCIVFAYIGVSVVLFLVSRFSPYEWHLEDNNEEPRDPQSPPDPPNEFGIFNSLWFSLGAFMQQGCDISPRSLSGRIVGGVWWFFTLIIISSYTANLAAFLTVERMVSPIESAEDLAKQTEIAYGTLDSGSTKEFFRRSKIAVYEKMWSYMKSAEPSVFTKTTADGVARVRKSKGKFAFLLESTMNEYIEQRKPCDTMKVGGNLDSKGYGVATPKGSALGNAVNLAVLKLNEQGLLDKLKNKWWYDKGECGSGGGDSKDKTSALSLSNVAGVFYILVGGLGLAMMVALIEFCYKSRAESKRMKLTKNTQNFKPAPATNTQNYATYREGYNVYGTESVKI

Biological target: dNOE1–mScarlet (dimeric NOE1 construct, residues 205-481 with five GCN4 residues) (rat) (UniProt Q62609)
Assay: SEC; FSEC, Superose 6; 5 nM dNOE1–mScarlet with 200 nM GluA1, GluA2 or GluA3 or 15–150 nM GluA4, 10 min; 20 mM Tris pH 8.0, 150 mM NaCl, 2 μM ZK, 10 μM (R,R)-2b, 0.075% digitonin; mScarlet fluorescence; both purified

Substance	binding
recombinant homomeric GluA2 receptor (C-terminal GFP and Strep tag) (from UniProt P19491 22-883)	no binding (tested: 200 nM GluA2 with 5 nM dNOE1–mScarlet)
recombinant homomeric GluA3 receptor (C-terminal GFP and Strep tag) (from UniProt P19492 23-888)	no binding (tested: 200 nM GluA3 with 5 nM dNOE1–mScarlet)
